Experimental data: PubChem BioAssay AID1487 (National Center for Advancing Translational Sciences (NCATS), 2009)
The other results are listed elsewhere or left out. Further columns of the screen follow, without active or inactive calls. Compounds called inactive in the main read-out are mostly missing here. Potencies come from curve fits of mixed quality, noted in brackets.

Experiment: qHTS Assay for Modulators of Lamin A Splicing
Conditions: HeLa LMNA splicing GFP/RFP minigene ratio, 48 h
In short: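 S3 HeLa stable clones carrying a lamin A-EGFP splicing minigene plus DsRed2 were seeded at 600 cells/well in Opti-MEM with 2% FBS, pin-dosed and incubated 48 h at 37°C. Acumen cytometry (488 nm) gave the GFP/RFP total-intensity ratio.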

[1] = measured here: GFP splicing reporter channel
[2] = measured here: RFP viability control channel

Structure (SMILES)	AC50 [1]	AC50 [2]
O=S1(=O)CC/C(=N\Nc2ccccc2)c2ccsc21	10 µM [rising, single point]	3.55 µM [rising, single point]
CC(=O)C1=C(C)NC(SCC(=O)c2ccc(-c3ccccc3)cc2)=C(C#N)C1c1cccnc1 (stereo unspecified)	14.1 µM [falling, single point]	35.5 µM [falling, single point]
Cn1c2ccccc2c2nnc(SCC(=O)NCc3ccoc3)nc21	–	10 µM [rising, partial curve]
COCc1ccc(C(=O)N2CCCC(CCC(=O)NCc3ccccc3F)C2)o1 (stereo unspecified)	–	12.6 µM [falling, single point]
O=C(NCCC1=CCCCC1)c1cc(-c2ccncc2)nc2ccccc12	0.0251 µM [falling, partial curve, poor fit]	–
COc1cc([N+](=O)[O-])ccc1NC(=O)CC1SC(=Nc2ccc(F)cc2)N(CCC2=CCCCC2)C1=O (stereo unspecified)	6.31 µM [rising, partial curve]	5.01 µM [rising, partial curve]
CCOC(=O)C1=C(C)N(c2ccc(C)c(C)c2)C(=O)/C1=C\c1ccco1	11.2 µM [rising, single point]	12.6 µM [rising, single point]
Cc1ccc(CN(C(=O)Cn2nnc3ccccc32)C(C(=O)NCc2ccco2)c2cccs2)cc1 (stereo unspecified)	11.2 µM [rising, partial curve]	11.2 µM [rising, single point]
COc1cc(OC)cc(N2C(=O)N(Cc3ccc(C(C)(C)C)cc3)c3ccccc3S2(=O)=O)c1	6.31 µM [falling, partial curve]	–
O=C(CCC1CCCC1)N1CCN(S(=O)(=O)Cc2ccccc2)CC1	–	11.2 µM [rising, partial curve]
c1coc(Cn2c(SCc3nc4ccccc4[nH]3)nnc2-c2cnccn2)c1	35.5 µM [rising, single point]	17.8 µM [rising, single point]
Cn1c(CNC(=O)c2ccccc2F)nnc1SCC(=O)NCc1ccccc1	0.631 µM [falling, full curve]	0.316 µM [falling, full curve]
COC(=O)c1scc(-c2ccc(C)cc2)c1S(=O)(=O)N1CCN(c2ccccc2)CC1	0.00891 µM [falling, full curve, poor fit]	0.0141 µM [falling, full curve, poor fit]
C#CCCOC(=O)N1C2=NC(C(=O)OC)=C(C(=O)OC)[C@@H]3Nc4ccccc4[C@]23C[C@H]1C(=O)OC	0.0794 µM [rising, single point]	–
Cc1ccc(-c2nnn(CCC(=O)Nc3ccc4c(c3)OCO4)n2)cc1	–	17.8 µM [rising, partial curve, poor fit]
COc1ccc(S(=O)(=O)N2CCN(Cc3ccc(Cl)cc3)CC2)cc1	35.5 µM [rising, single point]	22.4 µM [rising, single point]
CCCCC1=CC2=CC(=O)C(C)(OC(=O)CC)C(=O)C2=CN1CCCN(CC)CC (stereo unspecified)	–	0.0316 µM [falling, full curve, poor fit]
CCCCC(NC(C)=O)c1nc2ccccc2n1CCCC (stereo unspecified)	11.2 µM [rising, partial curve]	14.1 µM [rising, single point]
CC(C)Oc1cccc(C(=O)C2CCCN(C(=O)c3csnn3)C2)c1 (stereo unspecified)	–	2 µM [falling, full curve, poor fit]
CCC(Sc1nc2ccccc2s1)C(=O)Nc1nnc(C)s1 (stereo unspecified)	35.5 µM [rising, single point]	35.5 µM [rising, single point]
CCn1c(SCC(=O)c2ccccc2)nnc1-c1cc2cc(Br)ccc2o1	0.00794 µM [rising, full curve, poor fit]	0.01 µM [rising, full curve, poor fit]
CC1(C)N=C(SCc2ccccc2Cl)c2ccccc2N1	20 µM [falling, partial curve, poor fit]	20 µM [falling, partial curve, poor fit]
NCC1CCC(N)C(O[C@@H]2C(O)[C@H](O[C@H]3OC(CO)C(O)C(N)C3O)[C@@H](N)C[C@H]2N)O1 (stereo partly specified)	0.447 µM [falling, partial curve]	15.8 µM [falling, partial curve, poor fit]
Cc1cc(Cl)ccc1OCC(=O)Nc1ccccc1N1CCOCC1	11.2 µM [rising, single point]	22.4 µM [rising, single point]
CCOC(=O)c1c(NC(=O)CN2C(=O)NC(C)(c3ccc(OC(F)F)cc3)C2=O)sc(C)c1C (stereo unspecified)	–	12.6 µM [rising, partial curve]
CCOC(=O)CSc1nc2sc(C)c(C)c2c(=O)n1N	22.4 µM [rising, single point]	–

Sorted by formula weight (low to high): part of the list above
Structure (SMILES)	AC50 [1]	AC50 [2]
O=S1(=O)CC/C(=N\Nc2ccccc2)c2ccsc21	10 µM [rising, single point]	3.55 µM [rising, single point]
Cc1ccc(-c2nnn(CCC(=O)Nc3ccc4c(c3)OCO4)n2)cc1	–	17.8 µM [rising, partial curve, poor fit]
Cc1cc(Cl)ccc1OCC(=O)Nc1ccccc1N1CCOCC1	11.2 µM [rising, single point]	22.4 µM [rising, single point]

Going on with the list:

Structure (SMILES)	AC50 [1]	AC50 [2]
CC(C)NC(=O)c1ccc(-n2c(=S)[nH]c3ccccc3c2=O)cc1	0.00708 µM [falling, full curve, poor fit]	–
O=[N+]([O-])c1nn(-c2ccc3c(c2)OCCO3)n(O)c1=Nc1ccccc1	–	20 µM [rising, single point]
Cc1cc2nc(-c3cccnc3SCC(=O)NCc3ccco3)[nH]c2cc1C	11.2 µM [rising, partial curve]	3.98 µM [rising, full curve, poor fit]
NC(=O)c1ccc(NC(=O)COC(=O)c2c3c(nc4ccccc24)/C(=C\c2ccc4c(c2)OCO4)CCC3)cc1	35.5 µM [falling, single point]	35.5 µM [falling, single point]
Cc1ccc(S(=O)(=O)n2nc(C)c(C#N)c2N)cc1	–	2.82 µM [rising, full curve]
Cc1cc2c(cc1C)NC(c1ccccn1)C1=C(CC(C)(C)CC1=O)N2 (stereo unspecified)	0.282 µM [rising, partial curve]	–
CC(C)(C)C1C=C(Sc2ccccc2)C(=O)O1 (stereo unspecified)	12.6 µM [falling, partial curve]	8.91 µM [falling, partial curve]
O=c1c(-c2ccccc2)nc2cnc(Nc3ccccc3)nc2n1C[C@H]1CCCO1	11.2 µM [falling, partial curve, poor fit]	10 µM [falling, partial curve, poor fit]
COc1ccc(Cl)cc1NC(=O)N(C)CCc1c(C)nn(C)c1C	–	0.0562 µM [falling, full curve, poor fit]
Cc1cccc(NC2=C/C(=N/S(=O)(=O)c3cccs3)c3ccccc3C2=O)c1	0.126 µM [falling, full curve, poor fit]	5.62 µM [falling, partial curve]
Cn1c(SCc2nc(-c3ccc(Cl)cc3)no2)nnc1-c1ccco1	–	20 µM [rising, single point]
Fc1ccc(Sc2ccccc2CNC2=NCCN2)cc1	11.2 µM [rising, single point]	15.8 µM [rising, single point]
Cn1c(CNC(=O)Nc2cccc(Cl)c2)nnc1SCc1ccccc1	15.8 µM [rising, single point]	15.8 µM [rising, single point]
CC(=O)CCC(=O)O	7.08 µM [falling, full curve, poor fit]	11.2 µM [falling, partial curve, poor fit]
CC(C)CNC(=S)N1CCC(c2nc(-c3ccc(F)cc3)no2)CC1	15.8 µM [falling, single point]	–
Cc1nc(Oc2ccc(S(=O)(=O)N3CCOCC3)cc2Cl)c2c3c(sc2n1)CCCC3	35.5 µM [rising, single point]	35.5 µM [rising, single point]
CC(=O)N(CN1C(=O)c2ccc([N+](=O)[O-])cc2C1=O)c1cccc(C(=O)O)c1	0.00501 µM [rising, full curve, poor fit]	–
CCn1c2c(c3cc(Cl)ccc31)CCCC2=O	–	17.8 µM [rising, single point]
CC(=O)c1ccc(NC(=O)c2cc(C)nc3c2c(C)nn3-c2ccc(C)cc2)cc1	0.282 µM [falling, full curve, poor fit]	–
COc1ccc(-c2nc3c(c4c2C[C@H](c2ccccc2)OC4)CN(S(=O)(=O)c2ccc(C)cc2)CC3)c(C)c1	–	5.62 µM [rising, single point]
COc1ccc(-c2nnn(CC(=O)N(CCCN3CCOCC3)C(C(=O)NC3CCCC3)c3ccco3)n2)cc1 (stereo unspecified)	0.0562 µM [rising, full curve, poor fit]	–
COc1cccc(-n2c(SCC(N)=O)nc3c([nH]c4ccccc43)c2=O)c1	–	15.8 µM [rising, single point]
COC(=O)c1cn(C)c2ccc(S(=O)(=O)N3CCCCC3)cc2c1=O	–	7.94 µM [falling, partial curve]
O=C(OCc1ccccc1)c1ccc(O)cc1	0.00316 µM [falling, full curve, poor fit]	14.1 µM [falling, single point]
CCN(CC)c1ccc(C(=O)NC(=S)N2CCN(Cc3ccc4c(c3)OCO4)CC2)cc1	–	20 µM [rising, single point]
